The target in this experiment is integrin β3 (human (endogenous in SKOV3)) (UniProt P05106). The experiment can be described thus: co-IP; SKOV3 cell lysates pretreated with Protein A/G Sepharose beads, incubated with integrin β3 antibodies (Abcam) and IgG as control at 4 °C overnight; beads washed with PBS with 1% PMSF; Western blotting.

Protein sequences, listed by entry. Tags and fused reporters are not part of them. Residues count along the entry.
UniProt P05106, residues 27-788: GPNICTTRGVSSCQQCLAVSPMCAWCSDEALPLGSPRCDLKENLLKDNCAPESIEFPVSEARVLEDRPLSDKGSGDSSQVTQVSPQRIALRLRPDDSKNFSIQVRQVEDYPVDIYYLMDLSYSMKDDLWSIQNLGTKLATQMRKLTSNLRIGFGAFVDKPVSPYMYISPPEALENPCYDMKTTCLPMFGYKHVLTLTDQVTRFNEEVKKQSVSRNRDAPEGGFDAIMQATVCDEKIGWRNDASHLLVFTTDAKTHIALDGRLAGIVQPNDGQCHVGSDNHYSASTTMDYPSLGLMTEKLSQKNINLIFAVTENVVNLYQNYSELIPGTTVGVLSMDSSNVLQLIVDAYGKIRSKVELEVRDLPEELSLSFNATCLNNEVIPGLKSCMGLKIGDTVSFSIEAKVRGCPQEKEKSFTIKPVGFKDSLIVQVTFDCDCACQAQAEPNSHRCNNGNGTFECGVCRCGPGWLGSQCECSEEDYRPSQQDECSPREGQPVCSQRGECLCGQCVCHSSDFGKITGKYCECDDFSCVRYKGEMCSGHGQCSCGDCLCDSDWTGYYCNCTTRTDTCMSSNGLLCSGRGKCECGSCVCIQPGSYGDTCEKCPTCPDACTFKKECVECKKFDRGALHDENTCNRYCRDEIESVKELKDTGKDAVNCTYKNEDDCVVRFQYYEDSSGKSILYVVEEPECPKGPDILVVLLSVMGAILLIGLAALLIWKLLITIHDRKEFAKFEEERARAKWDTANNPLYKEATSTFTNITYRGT
UniProt Q96CG8, residues 31-243: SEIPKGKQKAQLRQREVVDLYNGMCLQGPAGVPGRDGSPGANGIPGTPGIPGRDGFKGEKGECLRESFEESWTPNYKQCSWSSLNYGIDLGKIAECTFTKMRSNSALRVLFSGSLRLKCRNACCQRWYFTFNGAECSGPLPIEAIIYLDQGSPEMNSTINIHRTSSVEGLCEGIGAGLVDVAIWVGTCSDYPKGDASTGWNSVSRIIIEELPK

Drawing on paper PMC5637322, this text covers binding for one substance.

No constants are given. Whether binding was seen depends on the method and setting. Binding seen in cells or lysates may run through a third protein. Some entries that bind do so weakly or less than the wild type.

Take “Collagen triple helix repeat containing-1 (CTHRC1) (from UniProt Q96CG8 31-243)”: the binding result is given as “binds”.
